Assay results taken from patent US4624954A, “6,7,8,9-tetrahydro-10-methylpyrido[1,2-a]indol-9-amines and derivatives thereof, useful for the treatment of cognitive impairments” (American Home Products Corporation, priority 1985, dated 1986).

Test: Passive avoidance test: prevention of scopolamine-induced memory impairment in rats
Type: in vivo, male Sprague-Dawley rats
Conditions: scopolamine alone 2.0 mg/kg s.c. 15 or 30 minutes prior to training

For `CN1[C@@H]2C[C@@H](OC(=O)[C@H](CO)c3ccccc3)C[C@H]1[C@@H]1O[C@@H]12` [scopolamine, reference compound], the “entry into the dark compartment during the retention test (latency)” value was at most 50 s.
